# From patent US9248109B2, “High penetration prodrug compositions of peptides and peptide-related compounds” (priority 2009, dated 2016)
# Counter-ions that a name gives are not always drawn. Not every detail of the peptide structures is certain; ends, links or a residue may be inferred.
# Test system: rats
# Assay: Solicitation and copulation of rats treated transdermally with HPPs/HPCs of Melanocortin II
# Type: in vivo, rat
# Details: for increase in copulation comparing to the control group / increase in solicitation comparing to the control group: 2 mg/kg once per day for 5 days; for Increased Copulation / Increased Solicitation: 2 mg/kg on the back once per day for 5 days, control = 1
# Procedure: The same dosage of cyclo(1,6)-Ac-Nle-Asp-His-Phe-Arg(NO2)-Trp-Lys-OCH2CH2N(CH2CH3)2.HCl(SEQ ID NO: 201) (peptide B) was applied to the back of another group of male rats (Group B-1, 30 rats). Rats of a control group were not treated with any drug. […] 6 fold increase in solicitation and 3 fold increase in copulation for Group B-1 in rats were observed comparing to the control group (Table 15).
# 2 mg/kg peptide A and peptide B in 0.2 ml of pH 7.0 phosphate buffer (0.1M) were applied to the back of both male rats (30 rats) and female rats (30 rates) once per day for 5 days. Rats of a control group were not treated with any drug.
# [1] = male and female rats treated (Groups A-2, B-2)
# [2] = male rats treated (Groups A-1, B-1)
compound,measurement,setting,value
"CCCC[C@H](NC(C)=O)C(=O)N[C@H]1CC(=O)NCCCC[C@@H](C(=O)OCCN(CC)CC)NC(=O)[C@H](Cc2c[nH]c3ccccc23)NC(=O)[C@H](CCCNC(=N)N[N+](=O)[O-])NC(=O)[C@H](Cc2ccccc2)NC(=O)[C@H](Cc2c[nH]cn2)NC1=O [B, cyclo(1,6)-Ac-Nle-Asp-His-Phe-Arg(NO2)-Trp-Lys-OCH2CH2N(CH2CH3)2.HCl]",increase in copulation comparing to the control group,[1],5 fold
same,increase in solicitation comparing to the control group,[1],6 fold
same,Increased Copulation,male and female rats treated,5
same,Increased Solicitation,male and female rats treated,6
same,increase in copulation comparing to the control group,[2],3 fold
same,increase in solicitation comparing to the control group,[2],6 fold
same,Increased Copulation,male rats treated,3
same,Increased Solicitation,male rats treated,6
